{"source": "the supplement of paper PMC8846439", "note": "The other results are listed elsewhere or left out. Most values come without repeats; read them as rough.", "data": [{"test_system": "Trypanosoma brucei brucei bloodstream form L262P (kDNA-independent)", "assay": "viability Z-score (nuclei count per well, median-polish normalised, relative to plate distribution); higher = more viable parasites (negative = growth inhibition)", "details": "4 days; compound concentration: 10 µM (some Prestwick/PKE rows may be 1 µM / not distinguished)", "values": [{"smiles": "[O-][N+](=O)C5=C/C=C(/NC(=O)NC=2C=C1N=C(C(=NC1=CC=2)C3=CC=CC=C3)C=4C=CC=CC=4)C=C5", "viability Z-score": -1.96}, {"smiles": "Cc1ccc(C(=O)Nc2ccc(S(=O)(=O)[O-])c3cc(S(=O)(=O)[O-])cc(S(=O)(=O)[O-])c23)cc1NC(=O)c1cccc(NC(=O)Nc2cccc(C(=O)Nc3cc(C(=O)Nc4ccc(S(=O)(=O)[O-])c5cc(S(=O)(=O)[O-])cc(S(=O)(=O)[O-])c45)ccc3C)c2)c1.[Na+].[Na+].[Na+].[Na+].[Na+].[Na+]", "note": "[Suramin·6Na]", "viability Z-score": -1.48}, {"smiles": "C/C1=C(/O/N=C1/C)C2=CN=C(/N=C2/C=3OC=CC=3)NC[C@]4([H])OCCC4", "viability Z-score": -3.08}]}]}
